In publication PMC7212688:
Results are given in words; binding and its absence hold for the method and conditions named. In cells and extracts the contact can be indirect. Some results given as binding are weak or reduced against the parent protein; the word gives no strength. Tags and fused reporters may be left off the sequences shown.

Protein sequences, listed by entry. Tags and fused reporters are not part of them.
UniProt Q04206: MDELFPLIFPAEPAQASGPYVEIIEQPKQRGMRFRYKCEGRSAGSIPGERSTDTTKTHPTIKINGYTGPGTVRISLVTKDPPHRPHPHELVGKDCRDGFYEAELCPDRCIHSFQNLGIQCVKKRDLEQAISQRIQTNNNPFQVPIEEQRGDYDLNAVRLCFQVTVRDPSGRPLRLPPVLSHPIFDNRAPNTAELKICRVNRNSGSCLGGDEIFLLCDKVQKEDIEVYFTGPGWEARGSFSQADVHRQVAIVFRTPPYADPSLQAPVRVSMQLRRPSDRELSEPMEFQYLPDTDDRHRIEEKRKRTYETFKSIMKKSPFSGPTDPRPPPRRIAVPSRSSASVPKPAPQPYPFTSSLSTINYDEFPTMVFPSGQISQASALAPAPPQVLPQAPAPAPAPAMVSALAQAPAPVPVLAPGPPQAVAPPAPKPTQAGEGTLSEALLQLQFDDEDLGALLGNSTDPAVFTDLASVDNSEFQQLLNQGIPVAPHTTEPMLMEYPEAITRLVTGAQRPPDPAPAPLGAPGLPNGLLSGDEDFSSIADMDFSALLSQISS

Target: T1, Flag-tagged full-length human NKRF (human) (UniProt O15226)
T1 sequence: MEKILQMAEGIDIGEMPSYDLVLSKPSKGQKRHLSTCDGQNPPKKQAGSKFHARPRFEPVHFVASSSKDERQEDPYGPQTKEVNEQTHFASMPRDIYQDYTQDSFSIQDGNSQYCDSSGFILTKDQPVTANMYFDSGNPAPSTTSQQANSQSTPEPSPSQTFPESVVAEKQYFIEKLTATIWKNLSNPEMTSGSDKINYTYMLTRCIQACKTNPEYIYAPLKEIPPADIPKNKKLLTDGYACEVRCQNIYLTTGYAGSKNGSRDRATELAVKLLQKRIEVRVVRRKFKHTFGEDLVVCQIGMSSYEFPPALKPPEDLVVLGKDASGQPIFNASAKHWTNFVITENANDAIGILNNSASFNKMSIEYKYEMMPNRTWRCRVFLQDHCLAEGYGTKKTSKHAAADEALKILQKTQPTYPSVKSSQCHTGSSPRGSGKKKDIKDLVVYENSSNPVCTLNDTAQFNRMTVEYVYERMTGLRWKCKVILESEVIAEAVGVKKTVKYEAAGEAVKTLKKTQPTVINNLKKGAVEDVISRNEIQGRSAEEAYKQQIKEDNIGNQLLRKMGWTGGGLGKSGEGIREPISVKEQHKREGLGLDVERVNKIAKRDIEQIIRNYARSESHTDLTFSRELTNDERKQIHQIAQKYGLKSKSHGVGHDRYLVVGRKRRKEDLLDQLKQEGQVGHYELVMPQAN
Assay: co-IP; 1 x 10^7 cells lysed in 50 mM Tris pH 7.4, 150 mM NaCl, 1% NP-40, 0.25% sodium deoxycholate; immunoprecipitated with anti-FLAG M2 magnetic beads at 4 °C overnight, washed five times; Western blot; cells with control or TROJAN (lncRNA) knockdown

binding: binds
Substance: RELA (from UniProt Q04206 1-551)
